Experimental data published in PubChem BioAssay AID1471 (National Center for Advancing Translational Sciences (NCATS), 2008).
Among all 230,000 compounds or so, about 310 (0.13%) were called active. Inconclusive results, whose numbers are uncertain, are shown with a selection of clear calls. Calls come from the whole dose curve; as a rule, active = well fitted activation curve with a large enough effect; inconclusive = small, poorly fitted or top-dose-only effect; inactive = no such curve, though single readings can be large or run the other way. Where the call is inconclusive, the potency comes from a doubtful curve fit.

Assay: qHTS Multiplex Assay to Identify Dual Action Probes in a Cell Model of Huntington: Cytoprotection (ATP); note: nearly all actives have a fitted effect of over 45% in size;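 for cytoprotection (ATP increase): toxic huntingtin expression switched on by the ecdysone agonist tebufenozide; % of control where 0% means no effect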
Details: PC12 HTT-Q103 induced, ATP luminescence, 40 h; cytoprotection (ATP increase): at 56.4 µM (top of the series) unless noted
How it was run: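 PC12 cells with ecdysone-inducible HTT exon 1 Q103-GFP, induced with 100 nM tebufenozide and co-treated with library compounds in a dose series (1536-well, 1500 cells/well). Cytoprotection read as ATP content by ATPlite luminescence.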
Potency is the fitted concentration of half-maximal effect.

Compound	Potency	cytoprotection (ATP increase)
Cc1ccc(NC(=S)N/N=C2\CCCCC2C)cc1 (centres undefined)	inconclusive: 891 nM [activator, partial curve]	
Cc1ccc(NC(=O)COC(=O)C2(c3ccc(Cl)cc3)CCCC2)cc1		inactive: -10.1% [at 10 µM]
Cc1ccc(N2C(=S)NC3c4cc(Cl)ccc4OC2(C)C3C(=O)N(C)C)cc1 (centres undefined)	inconclusive: 794 nM [activator, single point]	
O=C1/C(=C/c2ccco2)CCc2ccccc21	inconclusive: 3550 nM [activator, partial curve, poor fit]	
CCOC(=O)c1ccc(Nc2ncnc3ccc(C)cc23)cc1	inactive	
CC1=C(CC/C(C)=N/NC(N)=S)C(C)(C)CCC1	inconclusive: 5620 nM [activator, single point]	
NNC(=O)COc1cccc(C(F)(F)F)c1	inactive	
Fc1ccc(C(c2nnnn2C2CCCC2)N2CCN(Cc3ccccc3)CC2)cc1 (centres undefined)	inactive	
CCOC(=O)C1(CCCc2ccccc2)CCN(C(=O)CCCn2cncn2)CC1		inactive: 12% [at 10 µM]
CC(=O)Nc1ccc(S(=O)(=O)c2ccc(N)cc2)cc1N	inconclusive: 6310 nM [activator, single point]	
CCCCCCCC1=Cc2ccccc2C(C(C(=O)OC)C(=O)OC)N1C(=O)OC (centres undefined)	inconclusive: 794 nM [activator, single point]	
COc1cccc(-n2c(CCn3nc(C)c([N+](=O)[O-])c3C)n[nH]c2=S)c1	inconclusive: 794 nM [activator, single point]	
COc1cc(NS(=O)(=O)c2ccc(N)cc2)ncn1	inconclusive: 1260 nM [activator, single point]	
CN(C)c1ccc(NC(=O)CSCc2nc3c(nnn3Cc3ccc(F)cc3)c(=O)[nH]2)cc1	inactive	
COc1ccc(CCNC(=O)CC(NS(=O)(=O)c2ccc(NC(C)=O)cc2)C(C)C)cc1OC (centres undefined)	inconclusive: 251 nM [activator, full curve, poor fit]	
CN1CCN(C(=O)C2CCC(C)(C(=O)O)C2(C)C)CC1 (centres undefined)		inactive: -2.51% [at 10 µM]
COc1ccc(NC(=O)CN(C)S(=O)(=O)c2cccc3nsnc23)cc1	inconclusive: 631 nM [activator, full curve]	
Cc1[nH]c(=O)[nH]c(=O)c1S(=O)(=O)N1CCN(c2cccc(Cl)c2)CC1	inconclusive: 1260 nM [activator, single point]	
COC(=O)NC(c1ccccc1)c1c[nH]c2ccc(OC)cc12 (centres undefined)	inconclusive: 22400 nM [activator, single point]	
COC(=O)c1cccc(C23CC4(C2)[C@H](CN(Cc2ccc(C(F)(F)F)cc2)[C@@H]4c2ccccc2)C3c2ccc(Cl)nc2)c1 (some centres undefined)	inconclusive: 17800 nM [activator, single point]	
O=c1c2c3c(sc2ncn1/N=C/c1ccncc1)CCCC3	inconclusive: 5620 nM [activator, single point]	
FC(F)(F)c1ccccc1-c1cc(NCc2cccnc2)ncn1	inactive	

Compound	Potency	cytoprotection (ATP increase)
CN1CCN2c3ncccc3Cc3ccccc3C2C1 (centres undefined)	inconclusive: 35500 nM [activator, single point]	
CCOC(=O)N/N=C1/C[C@@H](O)[C@@H](O)[C@@H]2[C@@H]3C(=O)N(C(C)(C)C)C(=O)[C@H]3CC[C@H]12	inconclusive: 178 nM [activator, full curve, poor fit]	
COCCn1c(SCC#N)nnc1-c1ccc([N+](=O)[O-])cc1	inconclusive: 7.1 nM [activator, full curve, poor fit]	
CC(=O)NC(=S)Nc1ccc(N2CCOCC2)c(S(=O)(=O)Nc2cc(Cl)ccc2Cl)c1	inconclusive: 31600 nM [activator, single point]	
CN1CCN(c2ncc3nc(-c4ccccc4)c(=O)n(CCC#N)c3n2)CC1	inconclusive: 5620 nM [activator, single point]	
CCCCCCCCCCCCCCCC(=O)N[C@@H](COP(=O)(O)O)C(=O)O	inconclusive: 562 nM [activator, full curve]	
CCOC(=O)C1CCN(C(=O)COc2ccc(S(=O)(=O)NC(C)C)cc2)CC1	inactive	
N#CCCN(CCC#N)C(=O)COc1ccc(Cl)cc1Cl		inactive: 14.2% [at 10 µM]
O=C(O)C1CCCN1c1nc(C(F)(F)F)nc2ccccc12 (centres undefined)	inconclusive: 31600 nM [activator, single point]	
COc1ccc2cc3cc(C(=O)Nc4cc(OC)c(OC)c(OC)c4)oc3nc2c1	inactive	
O=C1CC(c2ccco2)CC2=C1C1c3ccccc3C(=O)N1c1ccccc1N2 (centres undefined)	inconclusive: 3160 nM [activator, single point]	
c1ccc2cc(C3=NCCN3)ncc2c1	inconclusive: 25100 nM [activator, partial curve]	
COc1ccccc1C(=O)NNC(=O)c1cccc(Cl)c1	inconclusive: 5620 nM [activator, single point]	
O=C1c2ccccc2NC(c2ccc(-c3ccc(Br)cc3)o2)N1O (centres undefined)	inactive	
CC(=O)OC[C@@H]1O[C@@H](O/N=C2/C[C@@H](O)[C@@H](O)[C@@H]3[C@@H]4C(=O)N(C(C)(C)C)C(=O)[C@H]4CC[C@@H]23)[C@H](OC(C)=O)[C@H](OC(C)=O)[C@@H]1OC(C)=O		inactive: -23.6% [at 10 µM]
C/C=C\c1ccc(OC)cc1	inconclusive: 39800 nM [activator, single point]	
O=C(CN1CCN(S(=O)(=O)c2ccc(Br)cc2)CC1)Nc1ccccc1C(=O)c1ccccc1	inconclusive: 1260 nM [activator, single point]	
CC(C)(C)S(=O)(=O)c1cnc2c(S(=O)(=O)c3ccccc3)cnn2c1N	inconclusive: 3550 nM [activator, single point]	
CC(=O)c1ccc(Nc2cc(C)nc3ccc(C)cc23)cc1	inconclusive: 1260 nM [activator, single point]	
C[C@H](O)CO[C@H]1[C@H]2O[C@H]3[C@H](O)[C@@H](O)[C@@H](O[C@H]4[C@H](O)[C@@H](O)[C@@H](O[C@H]5[C@H](O)[C@@H](O)[C@@H](O[C@H]6[C@H](O)[C@@H](OC[C@H](C)O)[C@@H](O[C@H]7[C@H](O)[C@@H](OC[C@H](C)O)[C@@H](O[C@H]8[C@H](O)[C@@H](O)[C@@H](O[C@@H]([C@@H]1O)[C@@H](CO)O2)O[C@@H]8CO)O[C@@H]7CO)O[C@@H]6CO)O[C@@H]5CO)O[C@@H]4CO)O[C@@H]3CO	inconclusive: 1260 nM [activator, single point]	
CCn1cc(C2=NCC(C)O2)c2ccccc21 (centres undefined)	inactive	
N=C(N=C(N)N)N1CCOCC1	inconclusive: 35.5 nM [activator, full curve, poor fit]	

Compound	Potency	cytoprotection (ATP increase)
COC(=O)c1ccc(CSc2nnc(-c3ccccc3)n2C)o1		inactive: -7.87% [at 10 µM]
CCN1C(=O)/C(=C/c2nc3ccccc3c(=O)n2-c2ccccc2)c2ccccc21		inactive: 17.6% [at 10 µM]
CC(/C=N/NC(=O)c1ccncc1)=C\c1ccc(C(C)C)cc1	inactive	
COc1ccc(C/C(C)=N/NC(=O)C2COc3ccccc3O2)cc1 (centres undefined)	inconclusive: 1260 nM [activator, single point]	
Cc1c(C(=O)N(C)C)sc2nc(-c3ccccn3)[nH]c(=O)c12	inconclusive: 1260 nM [activator, partial curve]	
Cc1oc(=O)oc1CN1CCN(c2cc3c(cc2F)c(=O)c(C(=O)O)c2n3C(C)S2)CC1 (centres undefined)	inconclusive: 282 nM [activator, full curve, poor fit]	
COc1ccccc1CN1CC[C@@]2(CCCN(C(=O)c3cnccn3)C2)C1	inconclusive: 708 nM [activator, full curve, poor fit]	
Cc1nc(C)c(C(=O)N/N=C/c2cn(C)c3ccccc23)s1	inconclusive: 1580 nM [activator, partial curve]	
C1CSC2(N1)C1CC3CC(C1)CC2C3 (centres undefined)	active: 1580 nM	
COc1ccc(S(=O)(=O)N2CCCC(C(=O)NCc3ccccn3)C2)cc1Cl (centres undefined)	inconclusive: 3550 nM [activator, single point]	
Cc1cccc(-n2cc3c(=O)n(C)c(=O)n(C)c3c2)c1	inconclusive: 2000 nM [activator, partial curve, poor fit]	
CCOC(=O)c1c(C)[nH]c(C(=O)CSc2ccc(Cl)cc2)c1C	inactive	
O=C(O)CCN1C(=O)c2ccccc2C1=O		inactive: 16.9% [at 10 µM]
CCC(=O)N1CCc2cc(OC)c(OC)cc2C1COc1ccccc1OC (centres undefined)	inconclusive: 631 nM [activator, single point]	
CC(C)(C)C(=O)NC1CCN(S(=O)(=O)c2ccc(C(F)(F)F)cc2)CC1	inconclusive: 2820 nM [activator, partial curve]	
CC(C)Cn1nnnc1S(=O)(=O)CCc1ccccc1	inconclusive: 35500 nM [activator, single point]	
COc1ccc(OC2C=CC(C#Cc3ccc(F)cc3F)OC2CO)cc1 (centres undefined)	inconclusive: 6310 nM [activator, single point]	
CCOC(=O)CCC(=O)NCc1ccc2c(c1)cc(C)n2C	inconclusive: 5620 nM [activator, single point]	
CCOc1ccc(NC(=O)CSc2nc3nc4c(cc3c(=O)n2CC)COC(C)(C)C4)cc1		inactive: 9.49% [at 10 µM]
C[C@@H]1O[C@@H](O[C@H]2[C@H](Oc3cc(O)c4c(c3)O[C@H](c3ccc(O)cc3)CC4=O)O[C@H](CO)[C@@H](O)[C@@H]2O)[C@H](O)[C@H](O)[C@H]1O	inconclusive: 89.1 nM [activator, full curve]	

Part of the list above, bar-delimited.
Compound | Potency | cytoprotection (ATP increase)
CCN1C(=O)/C(=C/c2nc3ccccc3c(=O)n2-c2ccccc2)c2ccccc21 |  | inactive: 17.6% [at 10 µM]
CC(/C=N/NC(=O)c1ccncc1)=C\c1ccc(C(C)C)cc1 | inactive | 
COc1ccc(C/C(C)=N/NC(=O)C2COc3ccccc3O2)cc1 (centres undefined) | inconclusive: 1260 nM [activator, single point] | 
COc1ccccc1CN1CC[C@@]2(CCCN(C(=O)c3cnccn3)C2)C1 | inconclusive: 708 nM [activator, full curve, poor fit] | 
Cc1nc(C)c(C(=O)N/N=C/c2cn(C)c3ccccc23)s1 | inconclusive: 1580 nM [activator, partial curve] | 
C1CSC2(N1)C1CC3CC(C1)CC2C3 (centres undefined) | active: 1580 nM | 
COc1ccc(S(=O)(=O)N2CCCC(C(=O)NCc3ccccn3)C2)cc1Cl (centres undefined) | inconclusive: 3550 nM [activator, single point] | 
Cc1cccc(-n2cc3c(=O)n(C)c(=O)n(C)c3c2)c1 | inconclusive: 2000 nM [activator, partial curve, poor fit] | 
CCOC(=O)c1c(C)[nH]c(C(=O)CSc2ccc(Cl)cc2)c1C | inactive | 
O=C(O)CCN1C(=O)c2ccccc2C1=O |  | inactive: 16.9% [at 10 µM]
CCC(=O)N1CCc2cc(OC)c(OC)cc2C1COc1ccccc1OC (centres undefined) | inconclusive: 631 nM [activator, single point] | 
CC(C)(C)C(=O)NC1CCN(S(=O)(=O)c2ccc(C(F)(F)F)cc2)CC1 | inconclusive: 2820 nM [activator, partial curve] | 
CCOC(=O)CCC(=O)NCc1ccc2c(c1)cc(C)n2C | inconclusive: 5620 nM [activator, single point] | 
C[C@@H]1O[C@@H](O[C@H]2[C@H](Oc3cc(O)c4c(c3)O[C@H](c3ccc(O)cc3)CC4=O)O[C@H](CO)[C@@H](O)[C@@H]2O)[C@H](O)[C@H](O)[C@H]1O | inconclusive: 89.1 nM [activator, full curve] | 
